Consider one compound from patent US9358239B2, “NiSOD-like compound and its derivatives for suppressing abnormal protein aggregation, recovering cell viability, increasing mature neuron number and neurite outgrowth length and protecting dopaminergic cells by reducing oxidative stress or reactive oxygen species in brain tissues” (National Taiwan Normal University, priority 2012, dated 2016).

SMILES strings stand for the structures. pIC50: −log10 of the molar value.

The subject of this assay is HEK-293 cells. Description: MTT viability assay, cytotoxicity against 293 cells. Conditions: read-out: IC50 (MTT viability), treatment for one day, interpolation method. (Tetrazolium assays rely on reduction of a dye to a coloured formazan, in cell work by metabolically active cells.)

What is called pIC50 is the IC50 on a negative log10 scale, so that one unit is a factor of ten. As for `O=C(CCCCCCC(=O)Nc1ccccc1)NO` [SAHA, suberoylanilide hydroxamic acid, reference compound], the negative-log IC50 (pIC50) was 3.42.
